This passage reports binding results from article doi:10.1101/2020.10.20.346858.

By UniProt entry, the sequences of proteins in these tests, tags left out. Where a name states a change or a piece, a line headed by the entry shows the natural chain unless it says otherwise. Chains listed by the source or under a name are the forms on record and can include a tag or linker.
UniProt Q05639: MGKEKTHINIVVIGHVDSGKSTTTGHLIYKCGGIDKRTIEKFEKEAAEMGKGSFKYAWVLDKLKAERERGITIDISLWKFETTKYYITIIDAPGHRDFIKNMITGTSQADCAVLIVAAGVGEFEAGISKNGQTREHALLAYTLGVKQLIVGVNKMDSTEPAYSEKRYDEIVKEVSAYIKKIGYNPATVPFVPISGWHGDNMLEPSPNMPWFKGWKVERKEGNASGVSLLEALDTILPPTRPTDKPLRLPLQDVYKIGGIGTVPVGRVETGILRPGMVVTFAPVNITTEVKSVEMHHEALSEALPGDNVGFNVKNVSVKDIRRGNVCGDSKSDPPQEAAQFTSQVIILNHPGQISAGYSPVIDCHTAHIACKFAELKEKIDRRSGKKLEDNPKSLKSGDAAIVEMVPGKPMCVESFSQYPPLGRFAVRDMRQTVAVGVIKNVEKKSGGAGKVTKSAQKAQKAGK
FLAG-eEF1A2 SE (Q05639, form named): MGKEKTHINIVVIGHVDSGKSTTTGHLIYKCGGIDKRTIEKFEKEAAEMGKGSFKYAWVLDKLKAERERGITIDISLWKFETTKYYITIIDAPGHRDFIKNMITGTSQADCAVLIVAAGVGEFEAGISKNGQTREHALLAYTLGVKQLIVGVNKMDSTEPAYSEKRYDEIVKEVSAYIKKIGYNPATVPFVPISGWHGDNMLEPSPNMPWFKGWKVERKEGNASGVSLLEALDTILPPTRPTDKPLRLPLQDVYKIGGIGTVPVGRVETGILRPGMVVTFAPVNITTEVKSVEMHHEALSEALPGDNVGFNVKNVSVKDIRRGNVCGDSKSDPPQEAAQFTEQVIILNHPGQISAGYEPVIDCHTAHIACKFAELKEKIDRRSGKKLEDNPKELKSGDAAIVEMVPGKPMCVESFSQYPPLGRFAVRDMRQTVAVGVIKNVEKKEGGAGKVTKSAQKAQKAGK
FLAG-eEF1A2 SA (Q05639, form named): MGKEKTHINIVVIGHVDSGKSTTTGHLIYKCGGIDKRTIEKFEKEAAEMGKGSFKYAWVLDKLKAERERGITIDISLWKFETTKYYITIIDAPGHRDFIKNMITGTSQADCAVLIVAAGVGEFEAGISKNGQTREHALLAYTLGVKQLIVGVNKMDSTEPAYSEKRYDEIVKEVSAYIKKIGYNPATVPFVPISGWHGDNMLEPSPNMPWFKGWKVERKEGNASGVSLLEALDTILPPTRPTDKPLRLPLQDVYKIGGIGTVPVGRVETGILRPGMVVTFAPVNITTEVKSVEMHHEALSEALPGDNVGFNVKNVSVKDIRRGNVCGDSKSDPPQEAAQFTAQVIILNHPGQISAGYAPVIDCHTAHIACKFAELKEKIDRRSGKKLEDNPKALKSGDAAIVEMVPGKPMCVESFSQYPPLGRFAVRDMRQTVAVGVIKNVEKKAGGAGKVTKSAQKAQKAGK
UniProt O43707: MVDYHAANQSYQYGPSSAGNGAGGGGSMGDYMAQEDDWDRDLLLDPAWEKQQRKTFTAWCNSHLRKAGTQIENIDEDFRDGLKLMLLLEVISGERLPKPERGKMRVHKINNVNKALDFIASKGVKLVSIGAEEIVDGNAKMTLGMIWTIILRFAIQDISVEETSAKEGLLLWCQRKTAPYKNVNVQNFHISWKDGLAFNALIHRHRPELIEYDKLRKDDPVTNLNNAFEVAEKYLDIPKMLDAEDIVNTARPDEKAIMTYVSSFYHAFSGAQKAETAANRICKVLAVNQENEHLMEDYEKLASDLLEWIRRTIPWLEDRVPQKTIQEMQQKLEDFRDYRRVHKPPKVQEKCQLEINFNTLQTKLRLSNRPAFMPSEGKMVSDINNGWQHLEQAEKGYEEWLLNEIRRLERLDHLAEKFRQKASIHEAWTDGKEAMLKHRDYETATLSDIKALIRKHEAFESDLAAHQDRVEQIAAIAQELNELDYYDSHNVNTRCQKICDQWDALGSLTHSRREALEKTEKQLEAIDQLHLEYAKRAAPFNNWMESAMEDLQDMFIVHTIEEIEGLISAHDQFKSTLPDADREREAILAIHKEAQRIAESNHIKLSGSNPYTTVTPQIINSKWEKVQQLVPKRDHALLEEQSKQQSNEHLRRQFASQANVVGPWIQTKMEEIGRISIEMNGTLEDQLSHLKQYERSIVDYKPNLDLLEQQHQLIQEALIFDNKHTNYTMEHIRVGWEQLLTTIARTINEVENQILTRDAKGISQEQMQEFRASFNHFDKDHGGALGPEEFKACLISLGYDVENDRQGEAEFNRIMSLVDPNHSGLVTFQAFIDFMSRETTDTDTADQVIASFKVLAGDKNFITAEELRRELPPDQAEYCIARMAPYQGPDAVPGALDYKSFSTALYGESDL
UniProt Q8TF72: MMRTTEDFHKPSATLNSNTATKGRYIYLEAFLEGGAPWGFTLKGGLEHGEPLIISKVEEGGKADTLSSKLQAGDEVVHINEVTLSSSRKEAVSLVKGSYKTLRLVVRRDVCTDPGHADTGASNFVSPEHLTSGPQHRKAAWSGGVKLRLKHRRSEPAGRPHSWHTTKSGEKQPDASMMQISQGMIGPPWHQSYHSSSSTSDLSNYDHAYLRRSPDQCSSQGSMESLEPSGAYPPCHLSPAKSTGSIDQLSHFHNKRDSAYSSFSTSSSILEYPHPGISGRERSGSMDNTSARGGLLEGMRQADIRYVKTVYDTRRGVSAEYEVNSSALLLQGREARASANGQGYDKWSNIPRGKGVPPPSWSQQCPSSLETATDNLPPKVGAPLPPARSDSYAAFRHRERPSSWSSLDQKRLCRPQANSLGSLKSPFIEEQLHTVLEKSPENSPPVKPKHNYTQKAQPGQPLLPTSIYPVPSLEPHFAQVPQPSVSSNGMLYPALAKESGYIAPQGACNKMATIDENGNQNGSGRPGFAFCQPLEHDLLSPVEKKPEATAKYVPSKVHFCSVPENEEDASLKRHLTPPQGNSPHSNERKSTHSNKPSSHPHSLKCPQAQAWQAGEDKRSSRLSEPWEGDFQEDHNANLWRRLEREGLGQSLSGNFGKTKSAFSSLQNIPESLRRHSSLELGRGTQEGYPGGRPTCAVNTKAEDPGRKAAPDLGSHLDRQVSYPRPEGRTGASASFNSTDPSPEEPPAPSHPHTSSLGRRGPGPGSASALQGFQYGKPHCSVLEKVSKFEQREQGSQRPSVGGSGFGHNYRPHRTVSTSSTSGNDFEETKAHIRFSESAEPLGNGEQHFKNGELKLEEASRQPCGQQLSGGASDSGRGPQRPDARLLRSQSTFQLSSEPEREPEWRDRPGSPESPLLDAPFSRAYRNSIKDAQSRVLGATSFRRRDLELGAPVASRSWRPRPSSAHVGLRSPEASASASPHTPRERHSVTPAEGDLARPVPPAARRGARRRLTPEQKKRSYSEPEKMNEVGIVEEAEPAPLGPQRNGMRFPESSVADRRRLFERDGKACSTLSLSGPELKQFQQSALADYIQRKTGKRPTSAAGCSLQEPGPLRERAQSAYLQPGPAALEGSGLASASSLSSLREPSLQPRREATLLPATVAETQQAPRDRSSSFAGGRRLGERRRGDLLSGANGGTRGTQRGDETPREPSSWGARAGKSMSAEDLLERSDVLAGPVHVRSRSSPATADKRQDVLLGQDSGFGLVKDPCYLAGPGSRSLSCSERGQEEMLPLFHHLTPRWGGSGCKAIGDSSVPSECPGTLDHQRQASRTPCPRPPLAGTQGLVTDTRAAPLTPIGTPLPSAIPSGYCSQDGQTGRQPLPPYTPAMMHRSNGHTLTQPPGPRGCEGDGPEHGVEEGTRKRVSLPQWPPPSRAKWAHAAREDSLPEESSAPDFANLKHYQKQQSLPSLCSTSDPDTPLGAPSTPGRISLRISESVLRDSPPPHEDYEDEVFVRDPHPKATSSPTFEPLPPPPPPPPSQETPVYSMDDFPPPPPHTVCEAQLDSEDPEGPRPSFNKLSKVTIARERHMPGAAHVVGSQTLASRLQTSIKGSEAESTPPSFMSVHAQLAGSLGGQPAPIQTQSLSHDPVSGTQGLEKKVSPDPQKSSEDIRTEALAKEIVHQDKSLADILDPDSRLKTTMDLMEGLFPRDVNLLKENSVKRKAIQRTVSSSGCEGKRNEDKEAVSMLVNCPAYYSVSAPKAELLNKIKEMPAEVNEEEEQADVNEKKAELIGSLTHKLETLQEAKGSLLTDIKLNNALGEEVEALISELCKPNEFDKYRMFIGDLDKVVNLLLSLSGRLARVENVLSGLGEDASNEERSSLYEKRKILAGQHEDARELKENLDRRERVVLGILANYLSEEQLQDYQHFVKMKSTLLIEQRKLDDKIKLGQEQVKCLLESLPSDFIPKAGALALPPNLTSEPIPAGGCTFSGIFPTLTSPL
UniProt P61586: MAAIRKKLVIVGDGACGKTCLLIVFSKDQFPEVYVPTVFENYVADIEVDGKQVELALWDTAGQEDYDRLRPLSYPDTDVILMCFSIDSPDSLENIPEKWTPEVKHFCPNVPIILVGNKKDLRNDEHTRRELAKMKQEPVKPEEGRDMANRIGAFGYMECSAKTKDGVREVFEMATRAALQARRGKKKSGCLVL
UniProt P26641: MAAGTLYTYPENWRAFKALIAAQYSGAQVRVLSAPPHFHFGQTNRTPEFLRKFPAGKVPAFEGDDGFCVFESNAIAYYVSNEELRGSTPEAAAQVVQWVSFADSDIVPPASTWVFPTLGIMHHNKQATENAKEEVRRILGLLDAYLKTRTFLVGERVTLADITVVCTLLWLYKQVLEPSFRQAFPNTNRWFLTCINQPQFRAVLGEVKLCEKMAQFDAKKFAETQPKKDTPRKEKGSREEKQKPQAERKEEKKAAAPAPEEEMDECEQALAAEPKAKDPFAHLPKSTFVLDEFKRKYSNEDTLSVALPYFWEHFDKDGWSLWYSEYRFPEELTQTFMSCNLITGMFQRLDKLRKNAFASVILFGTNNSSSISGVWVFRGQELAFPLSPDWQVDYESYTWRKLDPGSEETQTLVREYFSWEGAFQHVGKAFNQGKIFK
UniProt P68104: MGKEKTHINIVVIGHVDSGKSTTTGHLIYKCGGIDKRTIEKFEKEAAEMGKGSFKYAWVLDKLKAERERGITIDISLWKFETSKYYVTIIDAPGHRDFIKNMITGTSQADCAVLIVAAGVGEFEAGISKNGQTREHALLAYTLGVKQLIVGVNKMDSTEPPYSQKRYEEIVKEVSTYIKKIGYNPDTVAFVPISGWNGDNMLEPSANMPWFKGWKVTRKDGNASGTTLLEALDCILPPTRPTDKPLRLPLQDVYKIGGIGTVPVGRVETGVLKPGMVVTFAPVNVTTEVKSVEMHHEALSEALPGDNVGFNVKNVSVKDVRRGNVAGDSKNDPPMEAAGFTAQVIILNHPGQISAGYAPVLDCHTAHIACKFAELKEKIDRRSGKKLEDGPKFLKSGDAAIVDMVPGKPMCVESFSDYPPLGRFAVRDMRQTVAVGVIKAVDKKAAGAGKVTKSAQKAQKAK
UniProt P29692: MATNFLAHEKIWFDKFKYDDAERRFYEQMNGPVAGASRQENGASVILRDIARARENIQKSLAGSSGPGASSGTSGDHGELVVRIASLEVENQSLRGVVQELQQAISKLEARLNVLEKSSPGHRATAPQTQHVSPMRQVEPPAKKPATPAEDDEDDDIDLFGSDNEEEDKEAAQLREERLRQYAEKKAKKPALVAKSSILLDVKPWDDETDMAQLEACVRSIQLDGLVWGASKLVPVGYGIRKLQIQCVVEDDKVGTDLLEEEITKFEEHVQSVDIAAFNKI
UniProt P47756: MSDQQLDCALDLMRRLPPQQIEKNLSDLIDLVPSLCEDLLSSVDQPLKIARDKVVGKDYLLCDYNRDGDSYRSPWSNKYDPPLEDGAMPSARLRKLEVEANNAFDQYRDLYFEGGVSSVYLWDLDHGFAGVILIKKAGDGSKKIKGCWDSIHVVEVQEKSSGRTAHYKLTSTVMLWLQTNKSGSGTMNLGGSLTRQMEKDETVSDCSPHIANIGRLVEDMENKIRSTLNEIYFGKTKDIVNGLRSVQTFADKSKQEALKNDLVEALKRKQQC

No constants are given. Whether binding was seen depends on the method and setting. In cells and extracts the contact can be indirect. Here binding means that the protein was enriched with, or labelled near, the bait; the list need not be complete.

Experiment [1] deals with FLAG-eEF1A2 SE (phosphomimetic mutant) (UniProt Q05639). Kind of experiment: affinity purification with mass spectrometry.
Experiment [2] deals with FLAG-eEF1A2 SA (phosphoablated mutant) (UniProt Q05639). In words: affinity purification with mass spectrometry.

Take α-actinin-4 (from UniProt O43707 1-911): in experiment [1], the binding entry was “binds”.

With Shroom3 (from UniProt Q8TF72 1-1996), the binding result in experiment [1] was “binds”.

In the case of RhoA (from UniProt P61586 1-193), in experiment [1], the binding entry was “binds”.

For the molecule eEF1G (from UniProt P26641 1-437), the binding result in experiment [2] is on record as “binds”.

For the molecule eEF1A1 (from UniProt P68104 1-462), the binding entry in experiment [2] is “binds”.

On to eEF1D (from UniProt P29692 1-281), for which the binding result in experiment [2] was “binds”.

Consider Filamin-B (from UniProt O75369 1-2602), for which, in experiment [1], the binding entry was “binds”.

Regarding “F-actin-capping β (from UniProt P47756 1-272)”, the binding entry in experiment [1] is “binds”.

B1: Cysteinyl-tRNA synthetase (protein, UniProt P49589 1-748)
chain: MADSSGQQGKGRRVQPQWSPPAGTQPCRLHLYNSLTRNKEVFIPQDGKKVTWYCCGPTVYDASHMGHARSYISFDILRRVLKDYFKFDVFYCMNITDIDDKIIKRARQNHLFEQYREKRPEAAQLLEDVQAALKPFSVKLNETTDPDKKQMLERIQHAVQLATEPLEKAVQSRLTGEEVNSCVEVLLEEAKDLLSDWLDSTLGCDVTDNSIFSKLPKFWEGDFHRDMEALNVLPPDVLTRVSEYVPEIVNFVQKIVDNGYGYVSNGSVYFDTAKFASSEKHSYGKLVPEAVGDQKALQEGEGDLSISADRLSEKRSPNDFALWKASKPGEPSWPCPWGKGRPGWHIECSAMAGTLLGASMDIHGGGFDLRFPHHDNELAQSEAYFENDCWVRYFLHTGHLTIAGCKMSKSLKNFITIKDALKKHSARQLRLAFLMHSWKDTLDYSSNTMESALQYEKFLNEFFLNVKDILRAPVDITGQFEKWGEEEAELNKNFYDKKTAIHKALCDNVDTRTVMEEMRALVSQCNLYMAARKAVRKRPNQALLENIALYLTHMLKIFGAVEEDSSLGFPVGGPGTSLSLEATVMPYLQVLSEFREGVRKIAREQKVPEILQLSDALRDNILPELGVRFEDHEGLPTVVKLVDRNTLLKEREEKRRVEEEKRKKKEEAARRKQEQEAAKLAKMKIPPSEMFLSETDKYSKFDENGLPTHDMEGKELSKGQAKKLKKLFEAQEKLYKEYLQMAQNGSFQ
Consider B1, for which the binding entry in experiment [2] was “binds”.

B2: Valyl-tRNA synthetase 1 (protein, UniProt P26640 1-1264)
chain: MSTLYVSPHPDAFPSLRALIAARYGEAGEGPGWGGAHPRICLQPPPTSRTPFPPPRLPALEQGPGGLWVWGATAVAQLLWPAGLGGPGGSRAAVLVQQWVSYADTELIPAACGATLPALGLRSSAQDPQAVLGALGRALSPLEEWLRLHTYLAGEAPTLADLAAVTALLLPFRYVLDPPARRIWNNVTRWFVTCVRQPEFRAVLGEVVLYSGARPLSHQPGPEAPALPKTAAQLKKEAKKREKLEKFQQKQKIQQQQPPPGEKKPKPEKREKRDPGVITYDLPTPPGEKKDVSGPMPDSYSPRYVEAAWYPWWEQQGFFKPEYGRPNVSAANPRGVFMMCIPPPNVTGSLHLGHALTNAIQDSLTRWHRMRGETTLWNPGCDHAGIATQVVVEKKLWREQGLSRHQLGREAFLQEVWKWKEEKGDRIYHQLKKLGSSLDWDRACFTMDPKLSAAVTEAFVRLHEEGIIYRSTRLVNWSCTLNSAISDIEVDKKELTGRTLLSVPGYKEKVEFGVLVSFAYKVQGSDSDEEVVVATTRIETMLGDVAVAVHPKDTRYQHLKGKNVIHPFLSRSLPIVFDEFVDMDFGTGAVKITPAHDQNDYEVGQRHGLEAISIMDSRGALINVPPPFLGLPRFEARKAVLVALKERGLFRGIEDNPMVVPLCNRSKDVVEPLLRPQWYVRCGEMAQAASAAVTRGDLRILPEAHQRTWHAWMDNIREWCISRQLWWGHRIPAYFVTVSDPAVPPGEDPDGRYWVSGRNEAEAREKAAKEFGVSPDKISLQQDEDVLDTWFSSGLFPLSILGWPNQSEDLSVFYPGTLLETGHDILFFWVARMVMLGLKLTGRLPFREVYLHAIVRDAHGRKMSKSLGNVIDPLDVIYGISLQGLHNQLLNSNLDPSEVEKAKEGQKADFPAGIPECGTDALRFGLCAYMSQGRDINLDVNRILGYRHFCNKLWNATKFALRGLGKGFVPSPTSQPGGHESLVDRWIRSRLTEAVRLSNQGFQAYDFPAVTTAQYSFWLYELCDVYLECLKPVLNGVDQVAAECARQTLYTCLDVGLRLLSPFMPFVTEELFQRLPRRMPQAPPSLCVTPYPEPSECSWKDPEAEAALELALSITRAVRSLRADYNLTRIRPDCFLEVADEATGALASAVSGYVQALASAGVVAVLALGAPAPQGCAVALASDRCSIHLQLQGLVDPARELGKLQAKRVEAQRQAQRLRERRAASGYPVKVPLEVQEADEAKLQQTEAELRKVDEAIALFQKML
Regarding B2, the binding entry in experiment [2] is on record as “binds”.

B3: eEF1B2 (endogenous) (protein, UniProt P24534 1-225)
chain: MGFGDLKSPAGLQVLNDYLADKSYIEGYVPSQADVAVFEAVSSPPPADLCHALRWYNHIKSYEKEKASLPGVKKALGKYGPADVEDTTGSGATDSKDDDDIDLFGSDDEEESEEAKRLREERLAQYESKKAKKPALVAKSSILLDVKPWDDETDMAKLEECVRSIQADGLVWGSSKLVPVGYGIKKLQIQCVVEDDKVGTDMLEEQITAFEDYVQSMDVAAFNKI
As for B3, the binding entry in experiment [2] is listed as “binds”.
